# Results reported in the supplement of paper PMC9454738.
# Structures can show the parent of a compound that is named as a salt. The list shows a part of the results. Single values are uncertain here, since repeats match poorly.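 Assays used MDA-MB-231 triple-negative breast cancer cells and their brain-metastatic line MDA-MB-231BRM, stably carrying empty vector, full-length GLI1 or truncated tGLI1. After 48 h, viability was read with CellTiter-Blue and normalized to 1% DMSO vehicle. tGLI1 selectivity meant viability fell 20% more in tGLI1 cells than in vector and GLI1 cells.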
# How the values were obtained:
# Experiment in all cases: cell viability relative to vehicle (DMSO) control (fraction); higher = more viable cells (less growth inhibition)
# Conditions in all cases: treatment time 48 h
# [1] = system: MDA-MB-231 GLI1
# [2] = system: MDA-MB-231 Vector
# [3] = system: MDA-MB-231 tGLI1
# [4] = system: MDA-MB-231BRM GLI1
# [5] = system: MDA-MB-231BRM Vector
# [6] = system: MDA-MB-231BRM tGLI1
Structure (SMILES),cell viability ([1]; 0.05 µM),cell viability ([1]; 0.5 µM),cell viability ([1]; 5 µM),cell viability ([2]; 0.05 µM),cell viability ([2]; 0.5 µM),cell viability ([2]; 5 µM),cell viability ([3]; 0.05 µM),cell viability ([3]; 0.5 µM),cell viability ([3]; 5 µM),cell viability ([4]; 0.05 µM),cell viability ([4]; 0.5 µM),cell viability ([4]; 5 µM),cell viability ([5]; 0.05 µM),cell viability ([5]; 0.5 µM),cell viability ([5]; 5 µM),cell viability ([6]; 0.05 µM),cell viability ([6]; 0.5 µM),cell viability ([6]; 5 µM)
C=CC(=O)Nc1cccc(Nc2nc(Nc3ccc(NC4CN(CCF)C4)cc3OC)ncc2C(F)(F)F)c1,1.13,1.59,0.741,1.19,1.35,0.519,0.955,1.52,0.713,1.02,0.969,0.942,1.01,1.04,0.955,0.97,0.948,0.901
CC1(C)CNc2cc(NC(=O)c3cccnc3NCc3ccncc3)ccc21 [Motesanib Diphosphate (AMG-706)],1.28,1.54,0.93,0.9,0.91,0.752,0.842,1.41,1.07,0.972,0.968,0.958,0.879,0.879,0.919,0.96,0.934,0.946
COc1c(C)c(C(=O)c2ccc(N)c(C(=O)O)c2)n2ccccc12,1.29,1.75,1.27,1.29,1.4,1.56,1.26,1.47,1.52,0.99,0.966,1.01,1.09,1.03,1.03,0.971,0.995,1.01
Cc1ccc(NC(=O)c2ccc(CN3CCN(C)CC3)cc2)cc1Nc1nccc(-c2cccnc2)n1 [Imatinib (STI571)],1.29,1.38,1.11,1.33,1.58,1.69,1.38,1.4,1.03,0.963,1,0.757,1.05,0.984,0.866,1.02,0.998,0.78
O=C(/C=C/c1ccc(O)c(O)c1)c1ccc(O)cc1O [Butein],2.02,3.07,1.59,1.2,1.26,0.74,1.38,1.27,1.03,0.833,0.755,0.558,0.86,0.809,0.638,1.05,1.06,1.04
O=C1NC(=O)/C(=C/c2cccc(C(F)(F)F)c2)S1,2.22,3.05,2.17,1.38,1.13,1.19,1.35,1.39,1.29,0.812,0.769,0.704,0.849,0.798,0.785,1.12,1,1.03
O=C(NCCO)c1cccc(-c2cc(Nc3ccc(OC(F)(F)F)cc3)ncn2)c1,2.15,3.11,2.01,1.26,1.39,1.43,1.35,1.49,1.57,0.885,0.795,0.709,0.861,0.833,0.731,1.24,1.17,0.953
CN(C)Cc1cccc(N=C(c2ccccc2)c2c(O)[nH]c3cc(C(=O)N(C)C)ccc23)c1,1.49,0.509,1.56,2.01,1.2,1.1,0.549,1.42,1.41,1.11,1.12,0.863,0.712,1.06,0.501,0.573,0.832,0.849
CC[C@]1(O)C[C@H]2CN(CCc3c([nH]c4ccccc34)[C@@](C(=O)OC)(c3cc4c(cc3OC)N(C=O)[C@H]3[C@@](O)(C(=O)OC)[C@H](OC(C)=O)[C@]5(CC)C=CCN6CC[C@]43[C@@H]65)C2)C1 [Vincristine],-0.102,-0.104,-0.137,-0.321,-0.357,-0.403,-0.16,-0.174,-0.228,0.895,0.835,0.83,0.934,0.724,0.77,0.76,0.857,0.79
COc1cc2c(Nc3ccc(NC(=O)c4ccccc4)cc3)ncnc2cc1OCCCN1CCOCC1,1.35,1.32,0.97,1.51,0.914,0.66,1.2,1.06,0.701,0.948,0.82,0.664,0.901,0.924,0.793,0.939,0.881,0.634
Cn1cc(C2=C(c3ccc(Cl)cc3Cl)C(=O)NC2=O)c2ccccc21,1.5,1.76,1.4,1.41,1.31,1.02,1.21,1.4,1.05,0.89,0.959,0.895,0.944,0.976,0.981,0.958,0.885,0.954
N#CCNC(=O)c1ccc(-c2ccnc(Nc3ccc(N4CCOCC4)cc3)n2)cc1,1.39,1.36,0.755,0.835,1.2,0.464,1.25,0.833,0.479,1.13,1.14,1.05,0.721,1.1,1.01,0.504,0.733,0.918
Cc1ccc(NC(=O)c2ccc(CN3CCN(C)CC3)cc2)cc1Nc1nccc(-c2cccnc2)n1 [Imatinib Mesylate (STI571)],1.45,1.8,1.01,1.43,1.19,0.995,1.11,1.39,1.21,0.901,0.923,0.875,0.898,0.91,0.869,0.926,0.881,0.868

# A few values from the results shown:
# cell viability ([6]; 5 µM), CC[C@]1(O)C[C@H]2CN(CCc3c([nH]c4ccccc34)[C@@](C(=O)OC)(c3cc4c(cc3OC)N(C=O)[C@H]3[C@@](O)(C(=O)OC)[C@H](OC(C)=O)[C@]5(CC)C=CCN6CC[C@]43[C@@H]65)C2)C1 [Vincristine] reads 0.79
# cell viability ([4]; 0.05 µM), CN(C)Cc1cccc(N=C(c2ccccc2)c2c(O)[nH]c3cc(C(=O)N(C)C)ccc23)c1 reads 1.11
